Article PMC5381078, “Carboxylate derivatives of tributyltin (IV) complexes as anticancer and antileishmanial agents” (DARU Journal of Pharmaceutical Sciences, 2017)

Test system: HepG2 cell line
Assay: Cytotoxicity against HepG2 cell line (SRB assay)
Type: cell-based, human
Conditions: HepG2 IC50
Procedure: Cytotoxicity was further evaluated against HepG2 cell line by sulforhodamine B (SRB) colorimetric assay. Dulbecco's Modified Eagle Medium (DMEM) supplemented with 10% FBS, 100 μg/mL streptomycin sulfate, 100 IU/mL penicillin G sodium and 0.25 μg/mL amphotericin B was used to culture HepG2 cells in CO2 (5%) incubator (Panasonic, Japan MCO-18 AC-PE) at 37 °C. An aliquot of 20 μL (1% DMSO in PBS) of samples was added to 180 μL of cell culture at an assay density of 1x10^5 cells/mL in 96-well plate. The plate was incubated at 37 °C for 72 h in CO2 incubator. Final concentration of compounds/standard was 20 μg/mL. Doxorubicin and 1% v/v DMSO in PBS ere used as positive and negative controls respectively. An equivalent number of cells in twelve wells of 96-well plate were incubated for 1 h at 37 °C and labeled as day zero control. Later, cells were fixed by adding 50 μL of cold 20% w/v TCA for 1 h at 4 °C. These were washed with tap water, air dried and stained with 50 μL of 0.057% w/v SRB in 1% v/v acetic acid for 30 min at room temperature. Cells were again washed with 1% v/v acetic acid, dried overnight and 200 μL of 10 mM Tris base (pH 10) was used to solubilize the bound dye for 1 h. Absorbance was measured at 515 nm using a microplate reader. Percentage of growth inhibition was calculated as: % inhibition = 100 – [(As – Ao) / (An – Ao) × 100], where, Ao, As and An are absorbance of day zero control, samples and negative control respectively. IC50 values were determined using 3-fold dilutions of the samples.

SMILES | Fold enhancement of potency compared to Ch-458 [fold] | Fold reduction of potency compared to Ch-458 [fold]
CCC[CH2][Sn]([CH2]CCC)([CH2]CCC)[O]C(=O)COc1ccc(OCC(=O)[O][Sn]([CH2]CCC)([CH2]CCC)[CH2]CCC)cc1 [Ch-409, bis(tributylstannyl) 2,2’-(1,4-phenylenebis(oxy))diacetate] | 19 | –
CCC[CH2][Sn]([CH2]CCC)([CH2]CCC)[O]C(=O)c1ccccc1C(=O)Nc1cccc2ccccc12 [Ch-450, tributylstannyl 2-(naphthalene-1-ylcarbamoyl)benzoate] | – | 1.77
CCC[CH2][Sn]([CH2]CCC)([CH2]CCC)[O]C(=O)CCC(=O)Nc1ccc(C(=O)[O][Sn]([CH2]CCC)([CH2]CCC)[CH2]CCC)cc1 [Ch-448, tributylstannyl 4-(4-oxo-4-((tributylstannyl)oxy)butanamido)benzoate] | – | 2.18
CCC[CH2][Sn]([CH2]CCC)([CH2]CCC)[O]C(=O)/C=C\C(=O)Nc1ccc(C(=O)OCC)cc1 [Ch-431, ethyl (Z)-4-(4-oxo-4-((tributylstannyl)oxy)but-2-enamido)benzoate] | – | 3.46
CCC[CH2][Sn]([CH2]CCC)([CH2]CCC)[O]C(=O)/C=C\C(=O)Nc1cccc(C)c1C [Ch-459, tributylstannyl (Z)-4-((2,3-dimethylphenyl)amino)-4-oxobut-2-enoate] | 2.54 | –
